The assay deals with L1210 leukemia ip in BDF1 mice, survival T/C. The assay is described as follows: NCI In Vivo Anticancer Drug Screen. Data for tumor model L1210 Leukemia (intraperitoneal) in B6D2F1 (BDF1) mice. The following applies: higher T/C = longer survival.
Setting [1] is: T/C endpoint: mean survival time, dose: 16.0 mg/kg/injection, schedule: Q01DX010 (ip), vehicle: alkali diluted with saline.
Setting [2] is: T/C endpoint: mean survival time, dose: 300.0 mg/kg/injection, schedule: Q01DX001 (ip), vehicle: saline.
[3] abbreviates: T/C endpoint: mean survival time, dose: 100.0 mg/kg/injection, schedule: Q04DX003 (ip), vehicle: Klucel (hydroxypropylcellulose) (HPC).
Setting [4] is: T/C endpoint: mean survival time, dose: 200.0 mg/kg/injection, schedule: Q04DX003 (ip), vehicle: Klucel (hydroxypropylcellulose) (HPC).
[5] abbreviates: T/C endpoint: mean survival time, dose: 400.0 mg/kg/injection, schedule: Q04DX003 (ip), vehicle: Klucel (hydroxypropylcellulose) (HPC).

The list shows only some results of the screen, not a fair sample: it is rich in T/C values a quarter to a half above the control, in often repeated tests (any T/C) and in doses without a T/C. Other doses and runs of a compound stand elsewhere. T/C gives the treated animals as a percentage of the vehicle group. Some doses have a count of surviving animals in place of a T/C: the source files T/C as zero there, which appears to mark a toxic dose or a test without result, not a measured value. Some survivor counts are full or nearly so, which does not show that the dose was tolerated: the source hardly ever lists a survival T/C far under the control, and the zero likely stands for such cases as well. Counts of survivors are from the toxicity check (mostly the fifth day) where no day follows; animals may have died later. Schedules are NCI's codes, read here as Q, the interval in days (D) or hours (H), X, the number of doses. Some schedule codes hold Z or #, which are not explained here. Some molecules as drawn cover several salts, stereoisomers or complexes of the source; a dose is that of the sample tested. Some entries were tested several times; the results are listed from low to high. For survival time, this PubChem deposit counts one and a half times the control or more as active, and values a quarter to a half above the control carry no call in these data; other NCI protocols may use other cut-offs. Additions like (4×) count equal records among those shown. Some T/C values are followed by the survivors on the day toxicity was checked, most often the fifth; where none is given, no animal had died by that day.

The text below walks through data of PubChem BioAssay AID248 (DTP/NCI, 2004).

As to `NC(Cc1ccc(N(CCCl)CCCl)cc1)C(=O)O` (stereo unspecified), the T/C (T/C endpoint: mean survival time, dose: 0.64 mg/kg/injection, schedule: Q01DX Z (ip), vehicle: carboxymethylcellulose (CMC)) was 127 % of control; the T/C (T/C endpoint: mean survival time, dose: 0.85 mg/kg/injection, schedule: Q01DX Z (ip), vehicle: carboxymethylcellulose (CMC)) was 140 % of control; the T/C (T/C endpoint: mean survival time, dose: 1.0 mg/kg/injection, schedule: Q01DX010 (ip), vehicle: alkali diluted with saline) is 133 % of control; the T/C (T/C endpoint: mean survival time, dose: 1.25 mg/kg/injection, schedule: Q01DX Z (ip), vehicle: carboxymethylcellulose (CMC)) is 129 % of control; the T/C (T/C endpoint: mean survival time, dose: 1.28 mg/kg/injection, schedule: Q01DX Z (ip), vehicle: carboxymethylcellulose (CMC)) was 144 % of control; the T/C (T/C endpoint: mean survival time, dose: 1.5 mg/kg/injection, schedule: Q01DX Z (im), vehicle: saline) is 144 % of control. In addition, the T/C (T/C endpoint: mean survival time, dose: 1.5 mg/kg/injection, schedule: Q01DX Z (ip), vehicle: saline) is 136 % of control; the T/C (T/C endpoint: mean survival time, dose: 2.0 mg/kg/injection, schedule: Q01DX010 (ip), vehicle: alkali diluted with saline) is 123, 133, 137, 138, 150, 154 % of control; the T/C (T/C endpoint: mean survival time, dose: 2.0 mg/kg/injection, schedule: Q01DX Z (ip), vehicle: methylcellulose (MC)) is 148 % of control; the T/C (T/C endpoint: mean survival time, dose: 2.5 mg/kg/injection, schedule: Q01DX010 (ip), vehicle: saline) was 125 and 131 % of control; the T/C (T/C endpoint: mean survival time, dose: 2.5 mg/kg/injection, schedule: Q01DX Z (ip), vehicle: carboxymethylcellulose (CMC)) was 138 % of control [5 of 6 alive]; the T/C (T/C endpoint: mean survival time, dose: 3.0 mg/kg/injection, schedule: Q01DX Z (sc), vehicle: saline) was 127 % of control. Moreover, the T/C is 139, 155, 169, 200 % of control (T/C endpoint: mean survival time, dose: 4.0 mg/kg/injection, schedule: Q01DX010 (ip), vehicle: alkali diluted with saline); 145 % of control (T/C endpoint: mean survival time, dose: 4.0 mg/kg/injection, schedule: Q01DX Z (ip), vehicle: methylcellulose (MC)); 141 % of control (T/C endpoint: mean survival time, dose: 5.0 mg/kg/injection, schedule: Q01DX009 (ip), vehicle: saline); 143 % of control (2×) (T/C endpoint: mean survival time, dose: 5.0 mg/kg/injection, schedule: Q01DX010 (ip), vehicle: saline); 143 % of control (T/C endpoint: mean survival time, dose: 5.0 mg/kg/injection, schedule: Q01DX Z (ip), vehicle: carboxymethylcellulose (CMC)); 139 % of control (2×) (T/C endpoint: mean survival time, dose: 8.0 mg/kg/injection, schedule: Q01DX001 (ip), vehicle: saline). The T/C is 117, 132, 191, 193 % of control (T/C endpoint: mean survival time, dose: 8.0 mg/kg/injection, schedule: Q01DX010 (ip), vehicle: alkali diluted with saline); 148 % of control (T/C endpoint: mean survival time, dose: 8.0 mg/kg/injection, schedule: Q01DX Z (ip), vehicle: methylcellulose (MC)); 131 and 147 % of control (T/C endpoint: mean survival time, dose: 10.0 mg/kg/injection, schedule: Q01DX010 (ip), vehicle: saline); 135 and 139 % of control (T/C endpoint: mean survival time, dose: 12.0 mg/kg/injection, schedule: Q01DX001 (ip), vehicle: saline); 133 % of control [4 of 6 alive] (T/C endpoint: mean survival time, dose: 12.0 mg/kg/injection, schedule: Q01DX Z (im), vehicle: saline); 125 % of control [5 of 6 alive] (T/C endpoint: mean survival time, dose: 12.0 mg/kg/injection, schedule: Q01DX Z (ip), vehicle: saline). The T/C runs as follows: under setting [1], 98, 105, 108 % of control; (T/C endpoint: mean survival time, dose: 20.0 mg/kg/injection, schedule: Q01DX009 (ip), vehicle: saline) 149 % of control; (T/C endpoint: mean survival time, dose: 96.0 mg/kg/injection, schedule: Q01DX006 (iv), vehicle: saline) 133 % of control [5 of 6 alive]; (T/C endpoint: median survival time, dose: 2.5 mg/kg/injection, schedule: Q01DX009 (ip), vehicle: saline) 125 and 138 % of control; (T/C endpoint: median survival time, dose: 5.0 mg/kg/injection, schedule: Q01DX009 (ip), vehicle: saline) 137 and 138 % of control; (T/C endpoint: median survival time, dose: 20.0 mg/kg/injection, schedule: Q01DX009 (ip), vehicle: saline) 133 % of control. Besides, the survivor count is reported as 6 of 6 (T/C endpoint: mean survival time, dose: 12.5 mg/kg/injection, schedule: Q01DX Z (ip), vehicle: saline); 6 of 6 under setting [1]; 2 of 6 (T/C endpoint: mean survival time, dose: 24.0 mg/kg/injection, schedule: Q01DX Z (im), vehicle: saline); 6 of 6 (T/C endpoint: mean survival time, dose: 24.0 mg/kg/injection, schedule: Q01DX Z (ip), vehicle: saline); 6 of 6 (T/C endpoint: mean survival time, dose: 24.0 mg/kg/injection, schedule: Q01DX Z (oral), vehicle: saline); 2 of 6 (T/C endpoint: mean survival time, dose: 24.0 mg/kg/injection, schedule: Q01DX Z (sc), vehicle: saline). In addition, the survivor count is 6 of 6 (T/C endpoint: mean survival time, dose: 25.0 mg/kg/injection, schedule: Q01DX Z (ip), vehicle: saline); 3 of 6 and 6 of 6 (T/C endpoint: mean survival time, dose: 32.0 mg/kg/injection, schedule: Q01DX009 (ip), vehicle: saline); 3 of 6, 5 of 6, 6 of 6 (T/C endpoint: mean survival time, dose: 32.0 mg/kg/injection, schedule: Q01DX010 (ip), vehicle: alkali diluted with saline); 6 of 6 (T/C endpoint: mean survival time, dose: 40.0 mg/kg/injection, schedule: Q01DX010 (ip), vehicle: saline); 3 of 6 (T/C endpoint: mean survival time, dose: 48.0 mg/kg/injection, schedule: Q01DX006 (iv), vehicle: saline); 2 of 6 (T/C endpoint: mean survival time, dose: 48.0 mg/kg/injection, schedule: Q01DX Z (oral), vehicle: saline). Moreover, the survivor count runs as follows: (T/C endpoint: mean survival time, dose: 96.0 mg/kg/injection, schedule: Q01DX Z (oral), vehicle: saline) 3 of 6; (T/C endpoint: mean survival time, dose: 100.0 mg/kg/injection, schedule: Q01DX001 (ip), vehicle: saline) 4 of 6; (T/C endpoint: mean survival time, dose: 200.0 mg/kg/injection, schedule: Q01DX001 (ip), vehicle: saline) 0 of 6.
As for `CCCCCCCCC1CCC(N)CC1` (stereo unspecified), under “T/C endpoint: mean survival time, dose: 400.0 mg/kg/injection, schedule: Q01DX009 (ip), vehicle: Klucel (hydroxypropylcellulose) (HPC)”, the survivor count is 6 of 6.
Consider `Cc1nc(N)sc1N=Nc1cc(Br)ccc1Br`, for which the survivor count under setting [2] is on record as 3 of 6.
Take `CC(O)C#CC(C)O` (stereo unspecified): the survivor count is, setting by setting: under setting [3], 3 of 6; under setting [4], 1 of 6; under setting [5], 0 of 6.
Regarding `CCSc1n[nH]c(=O)nc1NN`, the survivor count runs as follows: (T/C endpoint: mean survival time, dose: 75.0 mg/kg/injection, schedule: Q01DX001 (ip), vehicle: saline) 0 of 6; (T/C endpoint: mean survival time, dose: 150.0 mg/kg/injection, schedule: Q01DX001 (ip), vehicle: saline) 0 of 6; under setting [2], 0 of 6.
Take `O=Cc1c2ccccc2cc2ccccc12`: the T/C (T/C endpoint: mean survival time, dose: 45.0 mg/kg/injection, schedule: Q01DX015 (ip), vehicle: saline) was 139 % of control.
As to `CC(=O)[O][Hg][c]1cc(C)cc([N+](=O)[O-])c1O`, the survivor count reads like this: (T/C endpoint: mean survival time, dose: 35.0 mg/kg/injection, schedule: Q01DX009 (ip), vehicle: Klucel (hydroxypropylcellulose) (HPC)) 1 of 6; (T/C endpoint: mean survival time, dose: 50.0 mg/kg/injection, schedule: Q04DX003 (ip), vehicle: Klucel (hydroxypropylcellulose) (HPC)) 0 of 6; (T/C endpoint: mean survival time, dose: 55.0 mg/kg/injection, schedule: Q01DX009 (ip), vehicle: Klucel (hydroxypropylcellulose) (HPC)) 2 of 6; (T/C endpoint: mean survival time, dose: 80.0 mg/kg/injection, schedule: Q01DX009 (ip), vehicle: Klucel (hydroxypropylcellulose) (HPC)) 0 of 6; under setting [3], 1 of 6; under setting [4], 0 of 6. Further, the survivor count under setting [5] is reported as 0 of 6.
As for `CN(CCO)C1=C(N2CC2)C(=O)C(N(C)CCO)=C(N2CC2)C1=O`, the T/C was 133 % of control (T/C endpoint: mean survival time, dose: 0.19 mg/kg/injection, schedule: Q04DX003 (ip), vehicle: saline); 125 % of control (T/C endpoint: mean survival time, dose: 0.25 mg/kg/injection, schedule: Q01DX009 (ip), vehicle: saline); 131 and 144 % of control (T/C endpoint: mean survival time, dose: 0.5 mg/kg/injection, schedule: Q01DX009 (ip), vehicle: saline); 139 % of control (T/C endpoint: mean survival time, dose: 0.75 mg/kg/injection, schedule: Q04DX003 (ip), vehicle: saline); 126 % of control (T/C endpoint: mean survival time, dose: 1.0 mg/kg/injection, schedule: Q01DX001 (ip), vehicle: saline).
